No constants are given. Whether binding was seen depends on the method and setting. In cells and extracts the contact can be indirect. Some entries that bind do so weakly or less than the wild type.
Tests used:
[1] = molecular target: AcGFP1-tagged whole (full-length) human iNOS (human) (UniProt P35228); test: co-IP; Matchmaker chemiluminescent Co-IP: HEK293 co-transfected with AcGFP1-bait and ProLabel-prey; 250 µg lysate, Living Colors full-length GFP polyclonal antibody, protein A/G plus agarose beads overnight at 4 °C; ProLabel luminescence (RLU) of the beads read over time
[2] = molecular target: AcGFP1-tagged human iNOS fragment (amino acids 181–335) (human) (UniProt P35228); test: as above

Protein sequences, listed by entry. Tags and fused reporters are not part of them. Lines headed by an entry give the natural chain unless they say otherwise; changes in a name come on top. Chains listed by the source or under a name are the forms on record and can include a tag or linker. Residues count along the entry.
UniProt P35228: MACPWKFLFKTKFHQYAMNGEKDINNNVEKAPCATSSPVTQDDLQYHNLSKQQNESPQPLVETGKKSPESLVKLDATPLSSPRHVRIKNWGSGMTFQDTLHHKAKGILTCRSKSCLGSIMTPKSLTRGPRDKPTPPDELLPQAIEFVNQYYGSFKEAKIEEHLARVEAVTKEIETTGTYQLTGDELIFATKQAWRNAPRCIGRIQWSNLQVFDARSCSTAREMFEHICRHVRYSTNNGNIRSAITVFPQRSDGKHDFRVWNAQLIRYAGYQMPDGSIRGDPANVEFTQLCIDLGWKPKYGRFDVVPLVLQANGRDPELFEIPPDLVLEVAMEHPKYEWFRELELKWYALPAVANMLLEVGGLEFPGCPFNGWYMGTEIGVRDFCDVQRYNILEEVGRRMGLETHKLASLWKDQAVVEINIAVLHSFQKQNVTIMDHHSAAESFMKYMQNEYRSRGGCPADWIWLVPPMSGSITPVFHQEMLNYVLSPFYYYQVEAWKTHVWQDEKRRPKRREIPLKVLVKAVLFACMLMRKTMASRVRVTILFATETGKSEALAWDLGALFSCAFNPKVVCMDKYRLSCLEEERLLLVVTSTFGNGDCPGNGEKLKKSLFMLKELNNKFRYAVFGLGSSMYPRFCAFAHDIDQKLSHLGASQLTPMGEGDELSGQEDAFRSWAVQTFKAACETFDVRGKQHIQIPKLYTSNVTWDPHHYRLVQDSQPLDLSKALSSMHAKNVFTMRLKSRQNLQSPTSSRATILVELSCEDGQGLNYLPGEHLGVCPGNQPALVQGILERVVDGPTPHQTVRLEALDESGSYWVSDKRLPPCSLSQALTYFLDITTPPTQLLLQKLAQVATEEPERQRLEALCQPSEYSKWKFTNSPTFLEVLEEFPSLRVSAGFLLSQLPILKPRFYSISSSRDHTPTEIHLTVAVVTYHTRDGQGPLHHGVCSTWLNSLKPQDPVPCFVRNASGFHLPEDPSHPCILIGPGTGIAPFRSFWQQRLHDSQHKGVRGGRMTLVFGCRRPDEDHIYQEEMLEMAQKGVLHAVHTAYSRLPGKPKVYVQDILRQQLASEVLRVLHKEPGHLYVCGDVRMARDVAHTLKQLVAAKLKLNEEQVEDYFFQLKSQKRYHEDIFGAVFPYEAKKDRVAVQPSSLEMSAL
AcGFP1-tagged human iNOS fragment (amino acids 181–335): residues 181-335 of P35228
UniProt Q09028: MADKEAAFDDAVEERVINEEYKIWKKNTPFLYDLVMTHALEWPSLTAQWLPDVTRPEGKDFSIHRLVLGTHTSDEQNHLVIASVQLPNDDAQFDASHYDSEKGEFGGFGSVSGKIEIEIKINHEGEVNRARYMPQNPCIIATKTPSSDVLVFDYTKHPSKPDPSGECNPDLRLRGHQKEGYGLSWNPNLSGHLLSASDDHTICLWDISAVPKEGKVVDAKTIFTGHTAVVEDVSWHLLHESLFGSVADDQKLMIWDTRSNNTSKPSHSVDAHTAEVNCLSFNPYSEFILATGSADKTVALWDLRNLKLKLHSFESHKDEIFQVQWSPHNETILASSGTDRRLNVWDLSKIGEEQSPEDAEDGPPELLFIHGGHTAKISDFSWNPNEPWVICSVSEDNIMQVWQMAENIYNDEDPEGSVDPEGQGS

binding [1]: binds | binding [2]: binds
Substance: ProLabel-tagged RbBP4 (from UniProt Q09028 1-425)

Source: paper PMC11048102
